Experimental data published in PMC8688524.

Assays:
[1] = molecular target: COL9A3 M3 region; assay: co-IP; tagged constructs co-transfected into AGS (Fig. 2B also BGC-823) cells; immunoprecipitation with anti-Flag, anti-Myc or anti-His; antibody overnight at 4 °C, protein A/G agarose 2 h at 4 °C; western blot
[2] = molecular target: COL6A5 H2 region; assay: as above

B1: Flag-tagged USP3 (enzyme, UniProt Q9Y6I4 1-520)
chain: MECPHLSSSVCIAPDSAKFPNGSPSSWCCSVCRSNKSPWVCLTCSSVHCGRYVNGHAKKHYEDAQVPLTNHKKSEKQDKVQHTVCMDCSSYSTYCYRCDDFVVNDTKLGLVQKVREHLQNLENSAFTADRHKKRKLLENSTLNSKLLKVNGSTTAICATGLRNLGNTCFMNAILQSLSNIEQFCCYFKELPAVELRNGKTAGRRTYHTRSQGDNNVSLVEEFRKTLCALWQGSQTAFSPESLFYVVWKIMPNFRGYQQQDAHEFMRYLLDHLHLELQGGFNGVSRSAILQENSTLSASNKCCINGASTVVTAIFGGILQNEVNCLICGTESRKFDPFLDLSLDIPSQFRSKRSKNQENGPVCSLRDCLRSFTDLEELDETELYMCHKCKKKQKSTKKFWIQKLPKVLCLHLKRFHWTAYLRNKVDTYVEFPLRGLDMKCYLLEPENSGPESCLYDLAAVVVHHGSGVGSGHYTAYATHEGRWFHFNDSTVTLTDEETVVKAKAYILFYVEHQAKAGSDKL
binding [1]: binds | binding [2]: binds

Results are given in words; binding and its absence hold for the method and conditions named. Binding seen in cells or lysates may run through a third protein. Binding can be weak; no strength is given. Sequences can lack the tags named with a protein.
